Experimental data taken from the supplement of paper PMC6411743.
± gives the standard deviation of the averaged measurements. The list shows a part of the results.

Protein sequences, listed by entry. Tags and fused reporters are not part of them. Lines headed by an entry give the natural chain unless they say otherwise; changes in a name come on top.
UniProt Q96DH6: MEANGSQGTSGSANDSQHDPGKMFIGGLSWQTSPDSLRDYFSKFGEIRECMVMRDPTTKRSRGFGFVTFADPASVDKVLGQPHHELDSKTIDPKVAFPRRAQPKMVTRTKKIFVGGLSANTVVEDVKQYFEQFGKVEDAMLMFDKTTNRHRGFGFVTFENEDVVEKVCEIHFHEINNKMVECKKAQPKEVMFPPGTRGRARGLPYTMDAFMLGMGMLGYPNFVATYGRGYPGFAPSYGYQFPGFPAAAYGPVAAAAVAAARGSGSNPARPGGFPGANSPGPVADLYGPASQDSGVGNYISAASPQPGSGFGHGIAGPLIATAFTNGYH
UniProt Q9NTJ5: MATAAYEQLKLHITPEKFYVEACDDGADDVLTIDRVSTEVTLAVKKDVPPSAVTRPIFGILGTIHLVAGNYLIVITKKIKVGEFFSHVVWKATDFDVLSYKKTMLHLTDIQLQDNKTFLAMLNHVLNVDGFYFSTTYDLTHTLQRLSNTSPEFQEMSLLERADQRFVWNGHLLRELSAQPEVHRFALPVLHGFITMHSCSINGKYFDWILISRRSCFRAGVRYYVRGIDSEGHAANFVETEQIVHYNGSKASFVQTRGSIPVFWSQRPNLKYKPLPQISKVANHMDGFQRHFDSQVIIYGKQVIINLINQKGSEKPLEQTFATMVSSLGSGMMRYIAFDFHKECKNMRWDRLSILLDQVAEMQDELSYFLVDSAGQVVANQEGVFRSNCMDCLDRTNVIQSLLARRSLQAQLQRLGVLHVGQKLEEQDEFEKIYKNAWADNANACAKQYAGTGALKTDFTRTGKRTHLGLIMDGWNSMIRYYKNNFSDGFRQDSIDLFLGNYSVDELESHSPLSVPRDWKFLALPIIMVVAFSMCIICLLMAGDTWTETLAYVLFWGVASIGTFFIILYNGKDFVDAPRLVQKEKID
UniProt Q13685: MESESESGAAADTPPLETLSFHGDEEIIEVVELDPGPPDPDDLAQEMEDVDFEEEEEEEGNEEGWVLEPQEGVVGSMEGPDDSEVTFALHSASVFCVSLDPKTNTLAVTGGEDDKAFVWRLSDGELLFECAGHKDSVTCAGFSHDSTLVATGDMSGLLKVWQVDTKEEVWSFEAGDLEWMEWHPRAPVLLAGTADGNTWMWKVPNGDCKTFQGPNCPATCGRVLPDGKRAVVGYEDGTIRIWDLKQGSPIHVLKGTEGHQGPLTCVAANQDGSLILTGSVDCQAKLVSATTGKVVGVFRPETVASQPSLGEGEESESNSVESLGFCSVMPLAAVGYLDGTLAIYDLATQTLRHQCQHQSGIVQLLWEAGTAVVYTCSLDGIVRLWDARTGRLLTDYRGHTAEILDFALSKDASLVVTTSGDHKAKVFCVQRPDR
UniProt Q9BUN8: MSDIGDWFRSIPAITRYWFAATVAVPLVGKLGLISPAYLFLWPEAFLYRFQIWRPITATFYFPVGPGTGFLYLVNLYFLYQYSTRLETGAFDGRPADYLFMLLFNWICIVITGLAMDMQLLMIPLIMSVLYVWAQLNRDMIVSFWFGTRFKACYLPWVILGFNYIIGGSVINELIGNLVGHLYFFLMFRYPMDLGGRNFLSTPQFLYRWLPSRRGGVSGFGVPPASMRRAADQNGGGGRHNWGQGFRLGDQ

Compound: Nc1nc2c(ncn2[C@@H]2O[C@H](COP(=O)(O)OP(=O)(O)OP(=O)(O)O)[C@@H](O)[C@H]2O)c(=O)[nH]1 [guanosine triphosphate]
Experiment: NP40-soluble protein abundance relative to vehicle (solubility fold change) (ratio); higher = more soluble protein in presence of GTP
Procedure: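 Solubility proteome profiling in Jurkat crude lysate. Lysate was treated with Mg-GTP (0.1-10 mM) for 10 min at room temperature and 3 min at 37 °C, then solubilised with 0.8% NP40 and benzonase, followed by ultracentrifugation. Proteins were quantified by TMT10 LC-MS/MS; the value is the NP40-soluble abundance relative to the NP40-processed vehicle, from 3 independent experiments.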

| Target | NP40-soluble protein abundance (concentration: 0.1mM) | NP40-soluble protein abundance (concentration: 0.5mM) | NP40-soluble protein abundance (concentration: 1mM) | NP40-soluble protein abundance (concentration: 2mM) | NP40-soluble protein abundance (concentration: 4mM) | NP40-soluble protein abundance (concentration: 6mM) | NP40-soluble protein abundance (concentration: 8mM) | NP40-soluble protein abundance (concentration: 10mM) |
| --- | --- | --- | --- | --- | --- | --- | --- | --- |
| C9JLU1 and related entries (UniProt P52434) | 1.05 ± 0.091 | 1.04 ± 0.09 | 0.984 ± 0.081 | 1 ± 0.13 | 0.985 ± 0.096 | 1.03 ± 0.089 | 0.957 ± 0.08 | 0.931 ± 0.041 |
| B4DHE8 and related entries (UniProt Q96DH6) | 0.908 ± 0.074 | 0.932 ± 0.063 | 0.891 ± 0.064 | 0.882 ± 0.058 | 0.863 ± 0.072 | 0.847 ± 0.039 | 0.823 ± 0.08 | 0.832 ± 0.09 |
| C9JV50 and related entries (UniProt Q9NTJ5) | 1.03 ± 0.037 | 1.03 ± 0.044 | 0.964 ± 0.032 | 0.972 ± 0.067 | 0.96 ± 0.036 | 0.953 ± 0.045 | 0.949 ± 0.012 | 0.91 ± 0.032 |
| C9JEH3 and related entries (UniProt Q13685) | 0.925 ± 0.037 | 0.974 ± 0.041 | 0.934 ± 0.027 | 0.956 ± 0.038 | 0.917 ± 0.035 | 0.932 ± 0.06 | 0.912 ± 0.049 | 0.965 ± 0.045 |
| B4E1G1 and related entries (UniProt Q9BUN8) | 1.07 ± 0.037 | 1.02 ± 0.016 | 1.01 ± 0.085 | 1.025 ± 0.0097 | 1.04 ± 0.039 | 0.964 ± 0.035 | 1.06 ± 0.028 | 1.01 ± 0.044 |
